The values that follow come from article PMC7054324.

By UniProt entry, the sequences of proteins in these tests, tags left out. Residues count along the entry.
UniProt Q9NZQ7, residues 19-290: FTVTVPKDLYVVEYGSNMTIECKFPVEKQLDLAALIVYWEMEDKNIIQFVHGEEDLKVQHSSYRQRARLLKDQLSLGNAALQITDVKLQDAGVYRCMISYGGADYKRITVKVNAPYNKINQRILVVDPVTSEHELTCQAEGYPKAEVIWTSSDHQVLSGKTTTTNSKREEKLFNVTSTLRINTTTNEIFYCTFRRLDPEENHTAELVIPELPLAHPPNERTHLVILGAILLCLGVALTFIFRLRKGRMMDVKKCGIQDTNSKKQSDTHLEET
UniProt O60934: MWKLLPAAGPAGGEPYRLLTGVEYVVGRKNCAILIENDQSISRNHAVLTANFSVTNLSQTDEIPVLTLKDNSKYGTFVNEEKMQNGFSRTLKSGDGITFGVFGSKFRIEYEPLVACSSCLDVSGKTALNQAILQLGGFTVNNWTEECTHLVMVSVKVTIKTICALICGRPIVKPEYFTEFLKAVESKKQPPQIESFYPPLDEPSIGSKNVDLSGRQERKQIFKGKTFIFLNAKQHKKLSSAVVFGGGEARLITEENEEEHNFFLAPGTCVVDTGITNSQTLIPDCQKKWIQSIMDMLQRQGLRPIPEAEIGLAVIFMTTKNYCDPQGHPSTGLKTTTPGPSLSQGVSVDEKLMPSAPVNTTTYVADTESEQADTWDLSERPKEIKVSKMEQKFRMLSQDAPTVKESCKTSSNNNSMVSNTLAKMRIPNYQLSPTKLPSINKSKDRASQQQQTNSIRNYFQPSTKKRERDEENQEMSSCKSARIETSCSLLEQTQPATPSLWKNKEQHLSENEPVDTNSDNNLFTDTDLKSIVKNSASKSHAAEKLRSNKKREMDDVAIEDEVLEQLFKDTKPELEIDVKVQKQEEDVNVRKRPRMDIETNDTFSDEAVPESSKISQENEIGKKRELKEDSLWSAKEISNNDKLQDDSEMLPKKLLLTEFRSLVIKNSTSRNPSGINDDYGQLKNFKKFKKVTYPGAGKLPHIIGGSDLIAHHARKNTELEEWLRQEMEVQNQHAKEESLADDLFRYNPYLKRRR

In the test the target is programmed cell death ligand 1 (PD-L1) (human (endogenous in JHU006 and JHU020)) (UniProt Q9NZQ7). In words: co-IP; lysates of JHU006 and JHU020 cells incubated with monoclonal mouse anti-human PD-L1 (1-2 ug per 100-500 ug total protein) for 3-4 h at 4 °C; captured on Protein A/G Sepharose beads, washed, eluted; western blot.

These are yes or no findings as the source states them, for the method shown. In cells and extracts the contact can be indirect. Some binding calls cover weakened binding; strength is not graded here.

Turning to NBS1 (from UniProt O60934 1-754), the binding result is on record as “binds”.
